The M2OR odorant receptor database
This is a selection; strong and weak results do not stand in their true shares. The calls were merged from several studies; some rest on single wells. Some of the results follow.

Chains of the proteins cited; added tags and fusions are not shown. A line that says so, or that is headed by a name, gives the form on record, which may keep a tag or linker.
OR6F1, as listed by the source: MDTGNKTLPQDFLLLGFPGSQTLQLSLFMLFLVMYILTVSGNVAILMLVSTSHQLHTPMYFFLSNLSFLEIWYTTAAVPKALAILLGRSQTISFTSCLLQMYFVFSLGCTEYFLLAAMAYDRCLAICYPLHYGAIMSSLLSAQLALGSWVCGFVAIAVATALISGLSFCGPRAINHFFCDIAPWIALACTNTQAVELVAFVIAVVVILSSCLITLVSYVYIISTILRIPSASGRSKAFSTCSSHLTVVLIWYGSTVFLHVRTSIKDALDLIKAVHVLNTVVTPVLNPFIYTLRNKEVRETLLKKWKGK

What was measured:
Details in all cases: stereoisomer not certain
[1] = tested on: T1, OR6J1
T1 sequence (whole entry): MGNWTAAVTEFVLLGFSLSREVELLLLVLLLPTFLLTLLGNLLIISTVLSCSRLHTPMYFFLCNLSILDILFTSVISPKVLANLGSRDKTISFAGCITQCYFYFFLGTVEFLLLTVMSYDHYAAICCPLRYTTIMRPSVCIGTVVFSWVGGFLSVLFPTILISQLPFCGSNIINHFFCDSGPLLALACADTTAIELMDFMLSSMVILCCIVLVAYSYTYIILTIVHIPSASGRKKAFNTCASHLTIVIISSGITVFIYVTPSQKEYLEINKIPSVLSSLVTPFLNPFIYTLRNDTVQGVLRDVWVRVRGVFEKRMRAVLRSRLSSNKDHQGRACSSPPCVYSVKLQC
Outline: (§1)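 Each entry records the cell line, G-protein, co-transfected protein and tags used. Methods varied with the source, often transient luciferase assays in mammalian cell lines. A receptor–molecule pair is called responsive (active) if the original authors judged its signal statistically different from baseline and non-responsive (inactive) otherwise.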

[2] = target: T2, OR6K2 (Homo sapiens) (UniProt Q8NGY2)
T2 sequence (whole entry): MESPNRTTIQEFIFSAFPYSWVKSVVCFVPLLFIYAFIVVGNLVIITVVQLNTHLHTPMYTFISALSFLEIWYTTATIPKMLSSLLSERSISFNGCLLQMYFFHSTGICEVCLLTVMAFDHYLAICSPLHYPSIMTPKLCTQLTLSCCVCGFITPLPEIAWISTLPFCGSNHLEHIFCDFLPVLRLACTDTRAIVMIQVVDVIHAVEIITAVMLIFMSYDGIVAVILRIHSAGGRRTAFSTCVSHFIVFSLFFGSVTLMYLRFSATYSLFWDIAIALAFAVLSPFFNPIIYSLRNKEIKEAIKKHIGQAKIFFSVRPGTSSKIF
Outline: as §1

[3] = tested on: T3, OR6K3
T3 sequence (whole entry): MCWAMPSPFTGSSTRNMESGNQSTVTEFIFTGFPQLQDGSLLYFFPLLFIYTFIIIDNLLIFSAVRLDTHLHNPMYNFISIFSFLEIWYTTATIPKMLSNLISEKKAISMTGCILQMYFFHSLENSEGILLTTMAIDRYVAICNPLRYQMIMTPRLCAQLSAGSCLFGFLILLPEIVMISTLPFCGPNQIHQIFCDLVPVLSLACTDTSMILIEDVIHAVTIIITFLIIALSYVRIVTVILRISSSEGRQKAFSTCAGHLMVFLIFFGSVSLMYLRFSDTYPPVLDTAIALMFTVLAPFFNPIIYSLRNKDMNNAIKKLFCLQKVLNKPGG
Outline: as §1

[4] = tested on: T4, OR6K3; remark: listed apart in the source
T4 sequence (whole entry): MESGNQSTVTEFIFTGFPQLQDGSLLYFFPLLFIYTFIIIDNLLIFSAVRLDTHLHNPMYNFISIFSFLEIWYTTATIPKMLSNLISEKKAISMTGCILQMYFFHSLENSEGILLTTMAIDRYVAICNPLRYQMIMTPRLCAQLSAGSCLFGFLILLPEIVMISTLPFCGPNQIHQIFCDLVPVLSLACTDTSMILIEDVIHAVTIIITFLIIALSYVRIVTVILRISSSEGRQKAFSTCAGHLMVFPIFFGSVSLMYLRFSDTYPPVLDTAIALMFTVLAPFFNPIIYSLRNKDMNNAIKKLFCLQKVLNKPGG
Outline: as §1

[5] = tested on: T5, OR6K6
T5 sequence (whole entry): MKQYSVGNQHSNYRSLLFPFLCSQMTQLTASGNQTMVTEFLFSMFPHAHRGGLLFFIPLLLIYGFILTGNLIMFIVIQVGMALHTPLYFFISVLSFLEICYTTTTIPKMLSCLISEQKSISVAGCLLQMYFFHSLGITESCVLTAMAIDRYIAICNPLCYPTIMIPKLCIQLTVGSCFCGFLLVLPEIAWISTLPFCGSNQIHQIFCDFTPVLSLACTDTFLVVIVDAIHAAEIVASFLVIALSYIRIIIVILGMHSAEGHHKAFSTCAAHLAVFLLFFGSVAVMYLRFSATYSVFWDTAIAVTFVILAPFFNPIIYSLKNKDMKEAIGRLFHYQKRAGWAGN
Outline: as §1

[6] = tested on: T6, OR6K6; remark: listed apart in the source
T6 sequence (whole entry): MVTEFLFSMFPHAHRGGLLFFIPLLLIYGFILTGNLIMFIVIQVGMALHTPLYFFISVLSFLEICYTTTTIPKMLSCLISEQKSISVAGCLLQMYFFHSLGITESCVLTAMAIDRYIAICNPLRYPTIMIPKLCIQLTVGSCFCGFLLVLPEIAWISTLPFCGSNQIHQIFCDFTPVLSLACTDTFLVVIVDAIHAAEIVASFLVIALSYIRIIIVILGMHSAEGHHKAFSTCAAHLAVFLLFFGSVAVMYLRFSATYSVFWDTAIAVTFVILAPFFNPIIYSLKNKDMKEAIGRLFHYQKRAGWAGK
Outline: as §1

[7] = tested on: OR6F1
Outline: as §1

[8] = tested on: OR6F1; remark: listed apart in the source
Outline: as §1

[9] = target: OR6K3 (Homo sapiens) (UniProt Q8NGY3)
Outline: as §1

[10] = target: OR6K6 (Homo sapiens) (UniProt Q8NGW6)
Outline: as §1

Row | Structure (SMILES) | odorant receptor agonist call [1] | odorant receptor agonist call [2] | odorant receptor agonist call [3] | odorant receptor agonist call [4] | odorant receptor agonist call [5] | odorant receptor agonist call [6] | odorant receptor agonist call [7] | odorant receptor agonist call [8] | odorant receptor agonist call [9] | odorant receptor agonist call [10]
1 | COc1cc(C)ccc1O | inactive | inactive | inactive | inactive | inactive | inactive | – | – | – | –
2 | CC(C)(O)CCCC1=CCC(C=O)CC1 (stereo not given) | inactive | – | – | – | – | – | – | – | – | –
3 | CC(=O)OCC=C(C)CCC=C(C)C | active | inactive | inactive | active | inactive | inactive | – | – | – | –
4 | CCCC(=O)O | inactive | inactive | inactive | inactive | inactive | inactive | – | – | – | –
5 | CC(C)C=O | inactive | inactive | inactive | inactive | inactive | inactive | – | – | – | –
6 | c1cnccn1 | inactive | inactive | inactive | inactive | inactive | inactive | – | – | – | –
7 | CC1=CCC(C(C)(C)O)CC1 (stereo not given) | inactive | inactive | inactive | inactive | inactive | inactive | – | – | – | –
8 | CC(=O)C(C)=O | inactive | inactive | inactive | inactive | inactive | inactive | – | – | – | –
9 | CC(C)=CCCC(C)=CC=O | inactive | inactive | inactive | inactive | inactive | inactive | – | – | – | –
10 | C=CC(C)(O)CCC=C(C)C (stereo not given) | inactive | inactive | inactive | inactive | inactive | inactive | – | – | – | –
11 | CC(C)CC(=O)O | inactive | inactive | inactive | inactive | inactive | inactive | – | – | – | –
12 | C=CCSCC=C | inactive | inactive | inactive | inactive | inactive | inactive | – | – | – | –
13 | CCCCCCOC(=O)CCC | inactive | inactive | inactive | inactive | inactive | inactive | – | – | – | –
14 | c1ccc(Oc2ccccc2)cc1 | inactive | inactive | inactive | inactive | inactive | inactive | – | – | – | –
15 | COC(=O)c1ccccc1O | inactive | inactive | inactive | inactive | inactive | inactive | – | – | – | –
16 | CC(C)CCC(=O)O | inactive | inactive | inactive | inactive | inactive | inactive | – | – | – | –
17 | CC1CCC(C(C)C)C(O)C1 (stereo not given) | inactive | inactive | inactive | active | inactive | inactive | – | – | – | –
18 | CCCCCC(=O)O | inactive | inactive | inactive | inactive | inactive | inactive | – | – | – | –
19 | CC=Cc1ccc(O)c(OC)c1 | active | inactive | inactive | inactive | inactive | inactive | – | – | – | –
20 | C=CCc1ccc(OC)c(OC)c1 | inactive | inactive | inactive | inactive | inactive | inactive | inactive | active | – | –
21 | C=C(C)C1CCC2=CC(=O)CC(C)C2(C)C1 (stereo not given) | active | – | – | – | – | – | – | – | – | –
22 | CC12C=CCC1C1CCC3CC(=O)CCC3(C)C1CC2 (stereo not given) | inactive | inactive | inactive | inactive | inactive | inactive | – | – | inactive | inactive
23 | CCCCCCCC=CC=O | active | inactive | inactive | inactive | inactive | inactive | – | – | – | –
24 | COc1cc(C=O)ccc1O | inactive | inactive | inactive | inactive | inactive | inactive | – | – | – | –
25 | CC12CCC(C1)C(C)(C)C2=O (stereo not given) | inactive | inactive | inactive | inactive | inactive | inactive | – | – | – | –
26 | CC(=O)OC(C)(C)C1CC=C(C)CC1 (stereo not given) | active | inactive | inactive | inactive | inactive | inactive | – | – | – | –

Complete entries, quoted from the list. Order of values: odorant receptor agonist call [1]	odorant receptor agonist call [2]	odorant receptor agonist call [3]	odorant receptor agonist call [4]	odorant receptor agonist call [5]	odorant receptor agonist call [6]	odorant receptor agonist call [7]	odorant receptor agonist call [8]	odorant receptor agonist call [9]	odorant receptor agonist call [10]
CCCCCCCC=CC=O in the list: active	inactive	inactive	inactive	inactive	inactive	–	–	–	–
CC(C)CCC(=O)O in the list: inactive	inactive	inactive	inactive	inactive	inactive	–	–	–	–
